Measured values as given in the supplement of paper PMC6078165.
Values are relative to the signal before dosing, not to a vehicle control; the signal also falls without drug.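 Fibroblast labels denote human fibroblasts, mainly primary ones from uterus (C12385, HUF), lung (H6013), bone (Hs27A), adrenal (HADF) and skin (WS1), plus mammary HMF and breast cancer-associated Hs343T. Cancer cells are basal-like or mesenchymal-like triple-negative breast cancer lines. A hit is a response shift exceeding 3x replicate standard deviation. The tissue of the other fibroblasts is not given here.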

Test system: MDAMB436
Assay: relative JC-1 red fluorescence (viability) vs pre-drug, coculture with fibroblast (fraction); higher = more viable cancer cells
Experimental: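 JC-1 labelled TNBC cells cocultured 1:1 (1,500 cells each) with CellTrace Violet stained primary or stromal fibroblasts in 384-well plates in FluoroBrite medium, treated with one of 42 anticancer drugs at 0.1, 1, 10 or 100 uM. JC-1 red fluorescence (mitochondrial integrity in cancer cells only) was read by plate reader every 8 h for 72 h. Values are normalised to each well's pre-drug value. The stock of one drug was tenfold lower, so its dose labels may be too high.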

O=C(O)C(=O)O.[NH-][C@@H]1CCCC[C@H]1[NH-].[Pt+2] [Oxaliplatin]
relative JC-1 red fluorescence
Conditions	8 h	16 h	24 h	32 h	40 h	48 h	56 h	64 h	72 h
0.1 µM, coculture fibroblast: C12385	0.795	0.763	0.754	0.689	0.66	0.6565	0.652	0.6441	0.6464
0.1 µM, coculture fibroblast: H6013	0.823	0.825	0.829	0.844	0.839	0.885	0.849	0.841	0.795
0.1 µM, coculture fibroblast: H6019	0.74903	0.692	0.675	0.606	0.572	0.558	0.531	0.5	0.47
0.1 µM, coculture fibroblast: H6076	0.764	0.765	0.825	0.816	0.869	0.869	0.918	0.925	0.918
0.1 µM, coculture fibroblast: H6231	0.691	0.662	0.715	0.65	0.658	0.637	0.642	0.637	0.622
0.1 µM, coculture fibroblast: HADF	0.793	0.764	0.744	0.727	0.73	0.765	0.71	0.706	0.676
0.1 µM, coculture fibroblast: HCFa	0.749	0.707	0.68	0.661	0.655	0.683	0.626	0.627	0.569
0.1 µM, coculture fibroblast: HCPF	0.708	0.676	0.714	0.662	0.672	0.661	0.667	0.659	0.662
0.1 µM, coculture fibroblast: HHSteC	0.846	0.85	0.843	0.81	0.818	0.831	0.771	0.7669	0.7099
0.1 µM, coculture fibroblast: HMF	0.726	0.698	0.705	0.675	0.687	0.667	0.699	0.686	0.681
0.1 µM, coculture fibroblast: HPFa	0.905	0.916	0.929	0.907	0.931	0.895	0.905	0.826	0.85
0.1 µM, coculture fibroblast: HUF	0.814	0.763	0.756	0.694	0.659	0.652	0.637	0.638	0.639
0.1 µM, coculture fibroblast: Hs5	0.7622	0.742	0.743	0.708	0.721	0.692	0.72	0.703	0.704
0.1 µM, coculture fibroblast: Hs27A	0.822	0.794	0.802	0.794	0.789	0.875	0.784	0.78	0.705
0.1 µM, coculture fibroblast: Hs343T	0.7316	0.684	0.668	0.639	0.635	0.612	0.638	0.63	0.628
0.1 µM, coculture fibroblast: WS1	0.7985	0.7514	0.743	0.6665	0.65	0.631	0.626	0.614	0.615
1 µM, coculture fibroblast: C12385	0.8133	0.69219	0.6646	0.582	0.5283	0.4991	0.4745	0.4522	0.449
1 µM, coculture fibroblast: H6013	0.84	0.728	0.7	0.691	0.674	0.699	0.655	0.649	0.612
1 µM, coculture fibroblast: H6019	0.748	0.645	0.611	0.526	0.484	0.476	0.44	0.417	0.39
1 µM, coculture fibroblast: H6076	0.771	0.637	0.62353	0.588	0.566	0.543	0.556	0.556	0.554
1 µM, coculture fibroblast: H6231	0.803	0.715	0.651	0.587	0.547	0.51058	0.489	0.46	0.439
1 µM, coculture fibroblast: HADF	0.8156	0.729	0.704	0.667	0.656	0.673	0.614	0.606	0.555
1 µM, coculture fibroblast: HCFa	0.832	0.7071	0.694	0.66	0.633	0.645	0.579	0.567	0.516
1 µM, coculture fibroblast: HCPF	0.77	0.691	0.665	0.603	0.584	0.553	0.535	0.515	0.503
1 µM, coculture fibroblast: HHSteC	0.823	0.727	0.691	0.661	0.636	0.641	0.58	0.556	0.505
1 µM, coculture fibroblast: HMF	0.762	0.629	0.619	0.575	0.561	0.531	0.529	0.518	0.506
1 µM, coculture fibroblast: HPFa	0.875	0.797	0.776	0.734	0.718	0.728	0.651	0.633	0.563
1 µM, coculture fibroblast: HUF	0.8488	0.712	0.703	0.619	0.566	0.533	0.513	0.497	0.487
1 µM, coculture fibroblast: Hs5	0.814	0.705	0.6728	0.614	0.594	0.556	0.5576	0.52968	0.5211
1 µM, coculture fibroblast: Hs27A	0.886	0.836	0.791	0.764	0.73	0.755	0.673	0.638	0.566
1 µM, coculture fibroblast: Hs343T	0.748	0.6248	0.593	0.552	0.533	0.501	0.495	0.49	0.484
1 µM, coculture fibroblast: WS1	0.7956	0.658	0.613	0.524	0.475	0.449	0.422	0.39	0.374
